Patent US9926355
These are yes or no findings as the source states them, for the method shown. Some entries that bind do so weakly or less than the wild type.

Sequences of proteins named here, by UniProt entry; tags and fusion partners are left off. A change or cut given only in a name is not applied to a line headed by its entry.
UniProt P11362: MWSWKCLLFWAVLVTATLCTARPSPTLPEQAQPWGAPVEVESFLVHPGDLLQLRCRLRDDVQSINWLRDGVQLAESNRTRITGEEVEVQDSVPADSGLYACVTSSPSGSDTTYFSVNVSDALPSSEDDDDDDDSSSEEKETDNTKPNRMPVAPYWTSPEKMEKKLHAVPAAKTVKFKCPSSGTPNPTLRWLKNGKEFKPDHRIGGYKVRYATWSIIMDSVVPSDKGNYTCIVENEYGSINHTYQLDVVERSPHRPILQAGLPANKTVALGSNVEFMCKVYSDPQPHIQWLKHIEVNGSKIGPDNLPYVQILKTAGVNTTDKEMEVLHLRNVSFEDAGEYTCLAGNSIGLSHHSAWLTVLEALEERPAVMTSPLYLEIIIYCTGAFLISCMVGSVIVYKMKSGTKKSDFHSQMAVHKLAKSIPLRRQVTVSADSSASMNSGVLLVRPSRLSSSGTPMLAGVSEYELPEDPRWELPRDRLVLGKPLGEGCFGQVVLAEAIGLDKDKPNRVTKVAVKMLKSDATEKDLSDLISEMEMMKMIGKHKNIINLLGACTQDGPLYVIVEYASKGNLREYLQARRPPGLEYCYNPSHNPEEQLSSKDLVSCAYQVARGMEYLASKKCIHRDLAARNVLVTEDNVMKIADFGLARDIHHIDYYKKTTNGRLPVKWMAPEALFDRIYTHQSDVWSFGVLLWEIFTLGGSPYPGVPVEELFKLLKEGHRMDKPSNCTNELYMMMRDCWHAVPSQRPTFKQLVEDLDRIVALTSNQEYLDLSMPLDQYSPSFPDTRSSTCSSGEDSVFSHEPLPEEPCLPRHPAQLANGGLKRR

Target: binary complex of FGFR1c ligand-binding domain with βKlotho ectodomain (murine; human) (UniProt P11362)
Assay: SPR competition; competitor on the chip: immobilized FGF21

binding: binds
B1: FGF2^ΔHBScore-FGF21^C-tail chimera (designed binder)
chain: MAAGSITTLPALPEDGGSGAFPPGHFKDPKRLYCKNGGFFLRIHPDGRVDGVREKSDPHIKLQLQAEERGVVSIKGVSANRYLAMKEDGRLLASKSVTDECFFFERLESNNYNTYRSRKYTSWYVALDQTGQYVLGSKTGPGQKAILFLPMPGLPPALPEPPGILAPQPPDVGSSDPLSMVGPSQGRSPSYAS
